# In patent US20200308550A1, “TUMOR ORGANOID MODEL” (IMBA - INSTITUT FÜR MOLEKULARE BIOTECHNOLOGIE GMBH, priority 2017, published 2020):
# Entries after “also recorded” stand apart in the source; their conditions may differ. For at least one compound, name, drawing or mass did not settle the structure.
# Columns and labels:
# [1] = system: GBM-2 (NF1-/PTEN-/p53-) neoplastic cerebral organoids; assay: Drug testing on neoplastic organoids, FACS of GFP+ tumor cells; assay type: cell-based, human; details: 1 μM, forty days after treatment, compared to DMSO
# [2] = system: MYC^OE neoplastic cerebral organoids; assay: as above; assay type: cell-based, human; details: 1 μM, forty days after treatment, compared to DMSO
smiles,measurement,setting,value
CN(C)C/C=C/C(=O)Nc1cc2c(Nc3ccc(F)c(Cl)c3)ncnc2cc1O[C@H]1CCOC1 [Afatinib],effect on GFP+ tumor cells,[1],exhibited no effect; also recorded: showed no effect
same,effect on GFP+ tumor cells,[2],exhibited no effect; also recorded: showed no effect
